# pIC50: −log10 of the molar value. Structures were worked out from names or drawings and are uncertain.
# By UniProt entry, the sequences of proteins in these tests, tags left out.
# UniProt P04150, whole entry: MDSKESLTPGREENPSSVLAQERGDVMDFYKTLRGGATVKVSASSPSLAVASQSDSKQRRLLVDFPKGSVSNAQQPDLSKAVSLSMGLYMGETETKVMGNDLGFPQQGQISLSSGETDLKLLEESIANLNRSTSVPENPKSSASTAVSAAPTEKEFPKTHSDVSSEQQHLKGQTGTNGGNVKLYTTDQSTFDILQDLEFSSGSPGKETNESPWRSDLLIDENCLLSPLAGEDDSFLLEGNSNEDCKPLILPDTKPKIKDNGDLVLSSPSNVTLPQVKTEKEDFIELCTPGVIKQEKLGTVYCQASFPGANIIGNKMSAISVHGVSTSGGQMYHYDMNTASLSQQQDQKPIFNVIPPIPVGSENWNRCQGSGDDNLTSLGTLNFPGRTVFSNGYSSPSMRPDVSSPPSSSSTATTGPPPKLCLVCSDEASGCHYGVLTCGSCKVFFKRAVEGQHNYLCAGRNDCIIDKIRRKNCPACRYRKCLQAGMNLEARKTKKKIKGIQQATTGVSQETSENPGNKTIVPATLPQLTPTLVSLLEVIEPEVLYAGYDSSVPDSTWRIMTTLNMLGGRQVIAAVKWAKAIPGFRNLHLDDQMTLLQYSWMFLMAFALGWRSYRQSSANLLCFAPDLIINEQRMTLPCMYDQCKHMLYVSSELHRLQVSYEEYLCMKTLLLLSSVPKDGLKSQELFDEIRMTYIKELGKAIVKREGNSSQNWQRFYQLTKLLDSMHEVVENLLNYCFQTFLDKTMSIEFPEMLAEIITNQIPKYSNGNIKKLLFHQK
# Tests used:
# [1] = target: Glucocorticoid Receptor (GR) (Homo sapiens, UniProt P04150); experiment: GR Fluorescence Polarization Assay (PolarScreen Glucocorticoid Receptor Competitor Assay, Red); conditions: read-out: GR binding; fluorescence polarization binding ranges
# Description: Fluorescence polarization assays were carried out using the PolarScreen™ Glucocorticoid Receptor Competitor Assay, Red from Invitrogen (P2893). The assay buffer was prepared according to the manufacturer's protocol and used to dilute the fluorescent glucocorticoid and GR. Compounds were prepared and serial diluted 1:4 in DMSO. Compound, fluorescent glucocorticoid and GR were added in a final volume of 20 μL and incubated overnight at 4° C. Fluorescent polarization was measured on the PerkinElmer Envision®. Fluorescence polarization binding ranges measured using GR Fluorescence Polarization Assay: […]
# IL-6 = experiment: A549 Cell Assay to Measure Inflammation Markers (inhibition of IL-1β-induced IL-6); conditions: read-out: A549 cell assay; A549 cells
# Description: A549 Cell Assay to Measure Inflammation Markers
# A549 cells were seeded (3E4 cells/well) in 96-well assay plates in culture medium (100 μL/well., F-12 K base media, supplemented with 10% FBS and 100 μ/mL-100 μg/mL Pen-Strep.) After overnight culture in an incubator set to 37° C., 4.9% CO2, and 90% humidity, media was removed from adherent cells by aspiration and replaced with 100 μL/well Assay Medium (F-12 K base media supplemented with 5% charcoal stripped calf sera and 100 U/mL-100 μg/mL Pen-Strep.) Compounds were prepared in DMSO and serial diluted (1:3, 1:4, or 1:5) with DMSO in Dilution Plate(s) to give 10 dilution points for each compound tested. Further dilution (1:250) of compound was made into assay medium and 50 μL/well diluted drug or DMSO/media control was applied to cells. After a 1 h pre-incubation in a temperature, CO2, and humidity controlled incubator, set to 37° C., 50 μL/well of 4 ng/mL IL-1β diluted in assay media, was applied to cultures. Assay plates, with a final volume of 200 μL/well and final concentrations of 0.1% DMSO and 1 ng/mL IL-1β were returned to incubator for a four h incubation period. Next, plates were spun at 183 g (1000 rpm in Beckman/Coulter Allegra 6KR centrifuge) for 10 min. Cell-free supernatant (150 μL/well) was collected and IL-6 was measured by MSD kit, following protocol of manufacturer, and using MSD SECTOR Imager 6000 instrument. […]
pIC50 [1],pIC50 (IL-6),SMILES
6.00 to 7.00,,CCS(=O)(=O)NC[C@@]12CC[C@](O)(C(F)(F)F)C[C@H]1CCCc1cc3c(cnn3-c3ccc(F)cc3)cc12
> 7.00,> 7.00,CS(=O)(=O)NC[C@@]12CC[C@](O)(C(F)(F)F)C[C@H]1CCCc1cc3c(cnn3-c3ccc(F)cc3)cc12

# Reference: patent publication US9193744B2, “Heterocyclic nuclear hormone receptor modulators” (AbbVie Inc., priority 2012, dated 2015)
